Values of other authors in patent publication US20070116778A1 (priority 2005, published 2007).
For at least one compound, name, drawing or mass did not settle the structure.

System: a range of bacteria and microfungi

Compound: C/C=C1/[C@H](O[C@@H]2O[C@H](CO)[C@@H](O)[C@H](O)[C@H]2O)OC=C(C(=O)OC)[C@H]1CC(=O)OCCc1ccc(O)c(O)c1 [Oleuropein]
- effect on rate of growth: inhibit or delay the rate of growth
